In US20070059339A1, “1-O-BETA-D-glucopyranosylgeraniol-10,5-olide and use thereof” (ISKRA INDUSTRY CO., LTD., priority 2005, published 2007):

Assay: Obesity ameliorating, lipid metabolism ameliorating and hypoglycemic action in mice bred with a high fat diet
Type: in vivo, ddY male SPF mice
Conditions: during the 6 week administration period, 250 mg/kg once a day
From the text: 6 week-old ddY male SPF mice (Nippon .SLC, body weight: about 30 g) were pre-bred for 1 week, then, divided into two groups of a control group and an administration group (5 mice for each group). Each of the mice in both the groups was bred for 6 weeks with a high fat diet (lard 40%, corn starch 10%, granulated sugar 9%, mineral mix 4%, vitamin mix 1%, casein 29%, cellulose 5%, lactose 2%). For the mice in the administration group, a specimen solution prepared by dissolving the compound (I) in purified water was continuously administered for 6 weeks with a dose of 250 mg/kg once a day while allowing water-drinking, and the body weight was measured at a frequency of once a week, during the feeding period with the high fat diet. For the mice in the control group, purified water was administered for 6 weeks instead of the specimen solution while allowing water-drinking.
The average value of the body weight of mice in each group and the standard error thereof were measured, and a significant difference test (t-test) between both the groups was carried out.
On the other hand, after completion of the above-mentioned continuous administration allowing water-drinking for 6 weeks, serum was collected from each mouse and blood biochemical values were measured, and liver and fat were excised and the weights of them were measured, respectively. […]

CC(C)=CC1C/C(=C/CO[C@@H]2OC(CO)[C@@H](O)C(O)C2O)C(=O)O1 (stereo partly drawn) [compound (I), 1-O-β-D-glucopyranosylgeraniol-10,5-olide]
Diet taking amount versus control group: approximately the same | Water taking amount versus control group: approximately the same
